Results are given in words; binding and its absence hold for the method and conditions named.
Target: UBE2D1 (human) (UniProt P51668)
Test: SPR; Biacore; BRAP and UBE2D1 (Supplementary Data S3B); who was immobilised is not given; both purified

The chains behind the UniProt entries cited, without tags or fusion partners.
UniProt P51668: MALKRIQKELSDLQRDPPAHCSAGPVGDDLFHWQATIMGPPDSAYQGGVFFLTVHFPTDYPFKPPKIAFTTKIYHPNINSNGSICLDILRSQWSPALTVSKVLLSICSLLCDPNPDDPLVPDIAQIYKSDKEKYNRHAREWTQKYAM

binding: no binding
B1: BRAP (1–592) (full-length) (protein, UniProt Q7Z569 1-592)
chain: MSVSLVVIRLELAEHSPVPAGFGFSAAAGEMSDEEIKKTTLASAVACLEGKSPGEKVAIIHQHLGRREMTDVIIETMKSNPDELKTTVEERKSSEASPTAQRSKDHSKECINAAPDSPSKQLPDQISFFSGNPSVEIVHGIMHLYKTNKMTSLKEDVRRSAMLCILTVPAAMTSHDLMKFVAPFNEVIEQMKIIRDSTPNQYMVLIKFRAQADADSFYMTCNGRQFNSIEDDVCQLVYVERAEVLKSEDGASLPVMDLTELPKCTVCLERMDESVNGILTTLCNHSFHSQCLQRWDDTTCPVCRYCQTPEPVEENKCFECGVQENLWICLICGHIGCGRYVSRHAYKHFEETQHTYAMQLTNHRVWDYAGDNYVHRLVASKTDGKIVQYECEGDTCQEEKIDALQLEYSYLLTSQLESQRIYWENKIVRIEKDTAEEINNMKTKFKETIEKCDNLEHKLNDLLKEKQSVERKCTQLNTKVAKLTNELKEEQEMNKCLRANQVLLQNKLKEEERVLKETCDQKDLQITEIQEQLRDVMFYLETQQKINHLPAETRQEIQEGQINIAMASASSPASSGGSGKLPSRKGRSKRGK

Reference: PMC5628404
